Results as given in publication PMC8772724.
Results are given in words; binding and its absence hold for the method and conditions named. In cells and extracts the contact can be indirect. Some entries that bind do so weakly or less than the wild type.

Chains of the proteins cited; added tags and fusions are not shown.
UniProt P55211: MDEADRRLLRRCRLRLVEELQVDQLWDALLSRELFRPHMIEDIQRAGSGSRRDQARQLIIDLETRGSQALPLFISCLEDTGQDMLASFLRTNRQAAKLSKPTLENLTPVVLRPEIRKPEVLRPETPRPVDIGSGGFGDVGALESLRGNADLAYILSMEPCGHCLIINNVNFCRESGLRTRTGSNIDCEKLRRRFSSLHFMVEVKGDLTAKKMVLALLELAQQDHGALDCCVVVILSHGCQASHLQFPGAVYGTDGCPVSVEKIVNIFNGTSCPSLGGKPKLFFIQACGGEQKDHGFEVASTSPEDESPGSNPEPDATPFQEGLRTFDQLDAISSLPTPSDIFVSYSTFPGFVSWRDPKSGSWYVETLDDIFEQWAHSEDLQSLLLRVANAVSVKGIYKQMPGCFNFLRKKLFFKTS
UniProt P99999: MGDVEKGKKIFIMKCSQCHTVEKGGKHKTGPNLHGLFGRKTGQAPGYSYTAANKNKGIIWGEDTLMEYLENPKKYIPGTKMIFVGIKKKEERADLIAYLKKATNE

Molecular target: procaspase-9 (human (endogenous in AC-16)) (UniProt P55211)
Assay: co-IP; procaspase-9 immunoprecipitated (5 ug antibody, protein A/G agarose) from 750 ug non-denatured AC-16 lysate (20 mM Tris, 137 mM NaCl, 2 mM EDTA, 1% Nonidet P-40, 10% glycerol, pH 7.4); preys measured by tandem sandwich ELISA; cells under normoxia, hypoxia (18 h) or hypoxia-reoxygenation (18 h + 8 h), with miR-210 overexpression or miR-210-3p decoy/inhibitor; rabbit IgG control

binding: binds
Substance: cytochrome c (from UniProt P99999 1-105)
